# B1: ZC12B_HUMAN (protein, UniProt Q5HYM0 1-836, looked up)
# Probable ribonuclease ZC3H12B: MTATAEVETPKMEKSASKEEKQQPKQDSTEQGNADSEEWMSSESDPEQISLKSSDNSKSCQPRDGQLKKKEMHSKPHRQLCRSPCLDRPSFSQSSILQDGKLDLEKEYQAKMEFALKLGYAEEQIQSVLNKLGPESLINDVLAELVRLGNKGDSEGQINLSLLVPRGPSSREIASPELSLEDEIDNSDNLRPVVIDGSNVAMSHGNKEEFSCRGIQLAVDWFLDKGHKDITVFVPAWRKEQSRPDAPITDQDILRKLEKEKILVFTPSRRVQGRRVVCYDDRFIVKLAFDSDGIIVSNDNYRDLQVEKPEWKKFIEERLLMYSFVNDKFMPPDDPLGRHGPSLENFLRKRPIVPEHKKQPCPYGKKCTYGHKCKYYHPERANQPQRSVADELRISAKLSTVKTMSEGTLAKCGTGMSSAKGEITSEVKRVAPKRQSDPSIRSVAMEPEEWLSIARKPEASSVPSLVTALSVPTIPPPKSHAVGALNTRSASSPVPGSSHFPHQKASLEHMASMQYPPILVTNSHGTPISYAEQYPKFESMGDHGYYSMLGDFSKLNINSMHNREYYMAEVDRGVYARNPNLCSDSRVSHTRNDNYSSYNNVYLAVADTHPEGNLKLHRSASQNRLQPFPHGYHEALTRVQSYGPEDSKQGPHKQSVPHLALHAQHPSTGTRSSCPADYPMPPNIHPGATPQPGRALVMTRMDSISDSRLYESNPVRQRRPPLCREQHASWDPLPCTTDSYGYHSYPLSNSLMQPCYEPVMVRSVPEKMEQLWRNPWVGMCNDSREHMIPEHQYQTYKNLCNIFPSNIVLAVMEKNPHTADAQQLAALIVAKLRAAR
# B2: PSA3_HUMAN (protein, UniProt P25788 2-255, looked up)
# Proteasome subunit alpha …: SSIGTGYDLSASTFSPDGRVFQVEYAMKAVENSSTAIGIRCKDGVVFGVEKLVLSKLYEEGSNKRLFNVDRHVGMAVAGLLADARSLADIAREEASNFRSNFGYNIPLKHLADRVAMYVHAYTLYSAVRPFGCSFMLGSYSVNDGAQLYMIDPSGVSYGYWGCAIGKARQAAKTEIEKLQMKEMTCRDIVKEVAKIIYIVHDEVKDKAFELELSWVGELTNGRHEIVPKDIREEAEKYAKESLKEEDESDDDNM
# B3: PSB6_HUMAN (protein, UniProt P28072 35-239, looked up)
# Proteasome subunit beta type-6: TTIMAVQFDGGVVLGADSRTTTGSYIANRVTDKLTPIHDRIFCCRSGSAADTQAVADAVTYQLGFHSIELNEPPLVHTAASLFKEMCYRYREDLMAGIIIAGWDPQEGGQVYSVPMGGMMVRQSFAIGGSGSSYIYGYVDATYREGMTKEECLQFTANALALAMERDGSSGGVIRLAAIAESGVERQVLLGDQIPKFAVATLPPA
# B4: S10AG_HUMAN (protein, UniProt Q96FQ6 1-103, looked up)
# Protein S100-A16: MSDCYTELEKAVIVLVENFYKYVSKYSLVKNKISKSSFREMLQKELNHMLSDTGNRKAADKLIQNLDANHDGRISFDEYWTLIGGITGPIAKLIHEQEQQSSS
# B5: SETLP_HUMAN (protein, UniProt P0DME0 1-292, looked up)
# Protein SETSIP: MAPKRQSPLPLQKKKPRPPPALGLEETSASAGLPKKGEKEQQEAIEHIDEVQNEIDRLNEQDSEEILKVEQKYNKLRQPFFQKRSELIAKIPNFGVTTFVNHPQVSSLLGEEDEEALHYLTKVEVTEFEDIKSGYRIDFYFDENPYFENKVFSKEFHLNESGDPSSKSTKIKWKSGKDVTKRSSQTQNKASRKRQHEEPESFFTWFTDHSDAGADELEEVIKDDIWPNPLQYYLVPDMDDEEGGEDDDDDDDDGDEGEEELEDIDEGDEDEGEEDEDDDEGEEGEEDEGEDD
# B6: TGM3_HUMAN (protein, UniProt Q08188 2-467; Q08188 468-693, looked up)
# Protein-glutamine … 1: AALGVQSINWQTAFNRQAHHTDKFSSQELILRRGQNFQVLMIMNKGLGSNERLEFIVSTGPYPSESAMTKAVFPLSNGSSGGWSAVLQASNGNTLTISISSPASAPIGRYTMALQIFSQGGISSVKLGTFILLFNPWLNVDSVFMGNHAEREEYVQEDAGIIFVGSTNRIGMIGWNFGQFEEDILSICLSILDRSLNFRRDAATDVASRNDPKYVGRVLSAMINSNDDNGVLAGNWSGTYTGGRDPRSWNGSVEILKNWKKSGFSPVRYGQCWVFAGTLNTALRSLGIPSRVITNFNSAHDTDRNLSVDVYYDPMGNPLDKGSDSVWNFHVWNEGWFVRSDLGPSYGGWQVLDATPQERSQGVFQCGPASVIGVREGDVQLNFDMPFIFAEVNADRITWLYDNTTGKQWKNSVNSHTIGRYISTKAVGSNARMDVTDKYKYPEGSDQERQVFQKALGKLKPNTPFA
# Protein-glutamine … 2: ATSSMGLETEEQEPSIIGKLKVAGMLAVGKEVNLVLLLKNLSRDTKTVTVNMTAWTIIYNGTLVHEVWKDSATMSLDPEEEAEHPIKISYAQYEKYLKSDNMIRITAVCKVPDESEVVVERDIILDNPTLTLEVLNEARVRKPVNVQMLFSNPLDEPVRDCVLMVEGSGLLLGNLKIDVPTLGPKEGSRVRFDILPSRSGTKQLLADFSCNKFPAIKAMLSIDVAE
# B7: GDIB_HUMAN (protein, UniProt P50395 1-445, looked up)
# Rab GDP dissociation …: MNEEYDVIVLGTGLTECILSGIMSVNGKKVLHMDRNPYYGGESASITPLEDLYKRFKIPGSPPESMGRGRDWNVDLIPKFLMANGQLVKMLLYTEVTRYLDFKVTEGSFVYKGGKIYKVPSTEAEALASSLMGLFEKRRFRKFLVYVANFDEKDPRTFEGIDPKKTTMRDVYKKFDLGQDVIDFTGHALALYRTDDYLDQPCYETINRIKLYSESLARYGKSPYLYPLYGLGELPQGFARLSAIYGGTYMLNKPIEEIIVQNGKVIGVKSEGEIARCKQLICDPSYVKDRVEKVGQVIRVICILSHPIKNTNDANSCQIIIPQNQVNRKSDIYVCMISFAHNVAAQGKYIAIVSTTVETKEPEKEIRPALELLEPIEQKFVSISDLLVPKDLGTESQIFISRTYDATTHFETTCDDIKNIYKRMTGSEFDFEEMKRKKNDIYGED
# B8: GDIR2_HUMAN (protein, UniProt P52566 2-201, looked up)
# Rho GDP-dissociation …: TEKAPEPHVEEDDDDELDSKLNYKPPPQKSLKELQEMDKDDESLIKYKKTLLGDGPVVTDPKAPNVVVTRLTLVCESAPGPITMDLTGDLEALKKETIVLKEGSEYRVKIHFKVNRDIVSGLKYVQHTYRTGVKVDKATFMVGSYGPRPEEYEFLTPVEEAPKGMLARGTYHNKSFFTDDDKQDHLSWEWNLSIKKEWTE
# B9: RINI_HUMAN (protein, UniProt P13489 2-461, looked up)
# Ribonuclease inhibitor: SLDIQSLDIQCEELSDARWAELLPLLQQCQVVRLDDCGLTEARCKDISSALRVNPALAELNLRSNELGDVGVHCVLQGLQTPSCKIQKLSLQNCCLTGAGCGVLSSTLRTLPTLQELHLSDNLLGDAGLQLLCEGLLDPQCRLEKLQLEYCSLSAASCEPLASVLRAKPDFKELTVSNNDINEAGVRVLCQGLKDSPCQLEALKLESCGVTSDNCRDLCGIVASKASLRELALGSNKLGDVGMAELCPGLLHPSSRLRTLWIWECGITAKGCGDLCRVLRAKESLKELSLAGNELGDEGARLLCETLLEPGCQLESLWVKSCSFTAACCSHFSSVLAQNRFLLELQISNNRLEDAGVRELCQGLGQPGSVLRVLWLADCDVSDSSCSSLAATLLANHSLRELDLSNNCLGDAGILQLVESVRQPGCLLEQLVLYDIYWSEEMEDRLQALEKDKPSLRVIS
# B10: LMTK3_HUMAN (protein, UniProt Q96Q04 21-1460, looked up)
# Serine/threonine-protein …: SPAHPDGFALGRAPLAPPYAVVLISCSGLLAFIFLLLTCLCCKRGDVGFKEFENPEGEDCSGEYTPPAEETSSSQSLPDVYILPLAEVSLPMPAPQPSHSDMTTPLGLSRQHLSYLQEIGSGWFGKVILGEIFSDYTPAQVVVKELRASAGPLEQRKFISEAQPYRSLQHPNVLQCLGLCVETLPFLLIMEFCQLGDLKRYLRAQRPPEGLSPELPPRDLRTLQRMGLEIARGLAHLHSHNYVHSDLALRNCLLTSDLTVRIGDYGLAHSNYKEDYYLTPERLWIPLRWAAPELLGELHGTFMVVDQSRESNIWSLGVTLWELFEFGAQPYRHLSDEEVLAFVVRQQHVKLARPRLKLPYADYWYDILQSCWRPPAQRPSASDLQLQLTYLLSERPPRPPPPPPPPRDGPFPWPWPPAHSAPRPGTLSSPFPLLDGFPGADPDDVLTVTESSRGLNLECLWEKARRGAGRGGGAPAWQPASAPPAPHANPSNPFYEALSTPSVLPVISARSPSVSSEYYIRLEEHGSPPEPLFPNDWDPLDPGVPAPQAPQAPSEVPQLVSETWASPLFPAPRPFPAQSSASGSFLLSGWDPEGRGAGETLAGDPAEVLGERGTAPWVEEEEEEEEGSSPGEDSSSLGGGPSRRGPLPCPLCSREGACSCLPLERGDAVAGWGGHPALGCPHPPEDDSSLRAERGSLADLPMAPPASAPPEFLDPLMGAAAPQYPGRGPPPAPPPPPPPPRAPADPAASPDPPSAVASPGSGLSSPGPKPGDSGYETETPFSPEGAFPGGGAAEEEGVPRPRAPPEPPDPGAPRPPPDPGPLPLPGPREKPTFVVQVSTEQLLMSLREDVTRNLLGEKGATARETGPRKAGRGPGNREKVPGLNRDPTVLGNGKQAPSLSLPVNGVTVLENGDQRAPGIEEKAAENGALGSPEREEKVLENGELTPPRREEKALENGELRSPEAGEKVLVNGGLTPPKSEDKVSENGGLRFPRNTERPPETGPWRAPGPWEKTPESWGPAPTIGEPAPETSLERAPAPSAVVSSRNGGETAPGPLGPAPKNGTLEPGTERRAPETGGAPRAPGAGRLDLGSGGRAPVGTGTAPGGGPGSGVDAKAGWVDNTRPQPPPPPLPPPPEAQPRRLEPAPPRARPEVAPEGEPGAPDSRAGGDTALSGDGDPPKPERKGPEMPRLFLDLGPPQGNSEQIKARLSRLSLALPPLTLTPFPGPGPRRPPWEGADAGAAGGEAGGAGAPGPAEEDGEDEDEDEEEDEEAAAPGAAAGPRGPGRARAAPVPVVVSSADADAARPLRGLLKSPRGADEPEDSELERKRKMVSFHGDVTVYLFDQETPTNELSVQAPPEGDTDPSTPPAPPTPPHPATPGDGFPSNDSGFGGSFEWAEDFPLLPPPGPPLCFSRFSVSPALETPGPPARAPDARPAGPVEN
# Test system: peptides in gingival brush samples
# Assay: Protein and peptide profiling of gingival brush samples (LC-MS/MS), TABLE 23
# Assay type: in vivo, human
# Details: for Mean Cntl Bsl / Mean Cntl Wk3 / Mean TrtBsl / Mean TrtWk3: peptide abundance, gingival brush samples; for Mean Cntl Bsl / Mean Cntl Wk3 / Mean CntlBsl (peptide abundance) / Mean CntlWk3 (peptide abundance): control regimen; for Mean Cntl Bsl / Mean TrtBsl / Mean CntlBsl (peptide abundance) / Mean TrtBsl (peptide abundance): baseline; for Mean Cntl Wk3 / Mean TrtWk3 / Mean CntlWk3 (peptide abundance) / Mean TrtWk3 (peptide abundance): week 3; for Mean TrtBsl / Mean TrtWk3 / Mean TrtBsl (peptide abundance) / Mean TrtWk3 (peptide abundance): treatment regimen; for Mean CntlBsl (peptide abundance) / Mean CntlWk3 (peptide abundance) / Mean TrtBsl (peptide abundance) / Mean TrtWk3 (peptide abundance): pooled gingival brush samples, LC-MS/MS
Molecule,Mean Cntl Bsl,Mean Cntl Wk3,Mean TrtBsl,Mean TrtWk3,Mean CntlBsl (peptide abundance),Mean CntlWk3 (peptide abundance),Mean TrtBsl (peptide abundance),Mean TrtWk3 (peptide abundance)
B1,5903.5,1876.8,14702.2,1027.9,,,,
B2,4680.6,4309.5,2591.7,4133.7,,,,
B3,4537.9,4417.4,4184.4,5054.8,,,,
B4,,,,,6388.6,10985.9,8702.5,15985.5
B5,,,,,722.3,1133.6,809.2,1620.6
B6,,,,,31482.5,51193.2,40923.6,70843.9
B7,,,,,3885.3,5618.5,4080.5,5987.0
B8,,,,,3520.1,2670.1,5082.8,2536.9
B9,,,,,13042.9,15417.3,5705.2,13521.2
B10,,,,,37038.8,76294.9,58040.2,104244.7
